# Results deposited as PubChem BioAssay AID602196 (INSERM, 2012).
# Test: 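Modifiers of cisplatin sensitivity in A549 cells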
# System: human A549 lung cancer cells
# Reagent: siRNA pair against human genes
# Timing: 48 h transfection before cisplatin; time from cisplatin to read-out not stated
# Challenge: cisplatin at a dose killing half of control-siRNA cells; exact dose and duration not given
# Read-out: 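Shift in cisplatin death relative to control siRNA, from -50 (all cells die) to +50 (no cells die); siRNAs harmful on their own scored 0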
# Reading the numbers: two-siRNA summed score (-2 to +2): higher = both siRNAs protect from cisplatin killing; -2 means both sensitise; mean protection from cisplatin (shift in death): higher = protection from cisplatin killing
# Hit rule: 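Each siRNA scores 0 if harmful alone by LDH or WST-1, otherwise +1 if it reduces and -1 if it increases cisplatin killing; a gene is active when both siRNAs agree (sum +2 or -2)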
# Calls: active = both siRNAs shift cisplatin killing the same way; inactive = no consistent shift, or siRNA harmful alone
# The whole screen tested about 23,000 reagents; this is a random part of them. 455 of them (2%) count as active. 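Active includes both protection and sensitisation; some change values fall well beyond the stated -50 to +50 range.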 Unmarked entries are inactive. The numbers tell different reagents against one gene apart. Not all columns of the deposit are shown. The record does not give: the amount of reagent.
gene knocked down,reagent no.,two-siRNA summed score (-2 to +2),mean protection from cisplatin (shift in death) (%)
NIN (GeneID 51199),1,0,9.5
MPG (GeneID 4350),1,-1,-13.6
ADAT2 (GeneID 134637),1,0,-2.8
POU1F1 (GeneID 5449),1,0,-11.3
SLC25A22 (GeneID 79751),1,0,-8.4
SEMA6B (GeneID 10501),1,1,27.3
LAS1L (GeneID 81887),1,0,-2
LCE2C (GeneID 353140),1,0,3.7
LOC441651,1,0,17.3
OR2T12 (GeneID 127064),1,1,12.9
ITGA8 (GeneID 8516),1,0,1.7
ZNF146 (GeneID 7705),1,0,6
LOC340267,1,0,5.6
CD5 (GeneID 921),1,0,4.9
MRPS10 (GeneID 55173),1,0,0.8
CRY1 (GeneID 1407),1,2 (active),19.7
LOC139363,1,1,20
BTNL9 (GeneID 153579),1,0,8.4
HSDL2 (GeneID 84263),1,1,25.5
LOC139189,1,1,36.6
MID1 (GeneID 4281),1,-1,-9.7
ST6GALNAC2 (GeneID 10610),1,0,14.5
TIGD7 (GeneID 91151),1,0,7
CD40 (GeneID 958),1,0,3.4
ME3 (GeneID 10873),1,-1,-12.9
ME3 (GeneID 10873),2,0,2.6
KRTAP9-2 (GeneID 83899),1,0,8.6
DENND1A (GeneID 57706),1,0,7.4
LOC132870,1,0,14.1
C20orf141 (GeneID 128653),1,1,7.8
PSMB5 (GeneID 5693),1,1,16.6
BTG4 (GeneID 54766),1,0,0.3
SAA1 (GeneID 6288),1,0,-1.5
CORO7 (GeneID 79585),1,0,4.3
EMX1 (GeneID 2016),1,0,6.4

Continued (6 carried over from the part before).
gene knocked down,reagent no.,two-siRNA summed score (-2 to +2),mean protection from cisplatin (shift in death) (%)
C20orf141 (GeneID 128653),1,1,7.8
PSMB5 (GeneID 5693),1,1,16.6
BTG4 (GeneID 54766),1,0,0.3
SAA1 (GeneID 6288),1,0,-1.5
CORO7 (GeneID 79585),1,0,4.3
EMX1 (GeneID 2016),1,0,6.4
CPB2 (GeneID 1361),1,1,11.2
SLC3A2 (GeneID 6520),1,0,-2
SLC3A2 (GeneID 6520),2,0,1.5
CLCN5 (GeneID 1184),1,0,9.8
CUL7 (GeneID 9820),1,0,0.3
ORC1 (GeneID 4998),1,1,11.5
VPS25 (GeneID 84313),1,0,1
LOC388722,1,0,13.5
TRIM52 (GeneID 84851),1,0,0.1
ZNF85 (GeneID 7639),1,0,3.4
LOC400987,1,0,9.9
SPINDOC (GeneID 144097),1,0,5.4
TP53I3 (GeneID 9540),1,0,-0.5
SPESP1 (GeneID 246777),1,0,-1.1
PLA2R1 (GeneID 22925),1,-1,-18.8
LOC441036,1,0,15.1
AMZ2P1 (GeneID 201283),1,0,8.3
PDHB (GeneID 5162),1,1,11.7
LUM (GeneID 4060),1,1,11.3
KIAA0319L (GeneID 79932),1,-1,-9.6
TNNC2 (GeneID 7125),1,0,11.7
LOC441053,1,0,10.4
ZNF565 (GeneID 147929),1,0,1.6
LOC441535,1,0,17.9
KRTAP19-5 (GeneID 337972),1,0,15.3
PEG3 (GeneID 5178),1,0,1.3
TMEM139 (GeneID 135932),1,1,11.7
PPP2R5E (GeneID 5529),1,1,5.2
LOC442015,1,0,18.9
C10orf62 (GeneID 414157),1,0,18.4
ZNF786 (GeneID 136051),1,2 (active),20.2
KDM1B (GeneID 221656),1,0,6.9
SLC32A1 (GeneID 140679),1,0,4.3
SOCS3 (GeneID 9021),1,0,25.4
RAD51D (GeneID 5892),1,0,-4.5
HYPK (GeneID 25764),1,0,-1.1
LOC440039,1,-1,-6.9
PPP1R11 (GeneID 6992),1,0,4.9
